These results are taken from publication PMC4439128.

By UniProt entry, the sequences of proteins in these tests, tags left out.
UniProt P54843: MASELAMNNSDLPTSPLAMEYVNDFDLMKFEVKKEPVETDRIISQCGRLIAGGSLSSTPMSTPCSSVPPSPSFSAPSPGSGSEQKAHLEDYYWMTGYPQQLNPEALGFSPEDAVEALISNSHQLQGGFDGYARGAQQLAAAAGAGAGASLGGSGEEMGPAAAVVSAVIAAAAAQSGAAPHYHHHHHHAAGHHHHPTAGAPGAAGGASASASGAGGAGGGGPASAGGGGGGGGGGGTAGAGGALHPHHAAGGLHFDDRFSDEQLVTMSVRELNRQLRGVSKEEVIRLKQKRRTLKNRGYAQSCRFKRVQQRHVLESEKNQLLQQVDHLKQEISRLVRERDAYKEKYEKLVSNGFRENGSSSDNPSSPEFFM
UniProt Q03526: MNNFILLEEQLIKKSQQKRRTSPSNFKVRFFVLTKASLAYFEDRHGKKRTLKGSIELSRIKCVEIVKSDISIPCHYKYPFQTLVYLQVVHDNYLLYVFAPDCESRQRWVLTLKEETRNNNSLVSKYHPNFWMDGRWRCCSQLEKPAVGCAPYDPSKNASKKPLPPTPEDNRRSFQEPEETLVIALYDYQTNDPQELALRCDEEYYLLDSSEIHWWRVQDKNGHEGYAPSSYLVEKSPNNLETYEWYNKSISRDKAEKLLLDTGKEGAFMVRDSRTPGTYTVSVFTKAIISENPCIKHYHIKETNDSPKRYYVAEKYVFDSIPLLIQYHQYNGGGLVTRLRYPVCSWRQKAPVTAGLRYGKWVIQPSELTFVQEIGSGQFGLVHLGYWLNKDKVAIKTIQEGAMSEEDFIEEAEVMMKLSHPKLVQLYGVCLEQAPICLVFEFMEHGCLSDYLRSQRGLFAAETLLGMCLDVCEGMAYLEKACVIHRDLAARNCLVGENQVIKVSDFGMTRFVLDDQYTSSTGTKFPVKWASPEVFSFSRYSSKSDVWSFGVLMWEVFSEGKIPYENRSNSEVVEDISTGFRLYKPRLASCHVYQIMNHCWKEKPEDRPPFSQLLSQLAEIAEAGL

These are yes or no findings as the source states them, for the method shown. In cells and extracts the contact can be indirect. Some entries that bind do so weakly or less than the wild type. Where a sequence is shown, tags or fusion partners need not be part of it.

The experiment has as its target HA-c-Maf (mouse) (UniProt P54843). Nature of the experiment: co-IP; HA-c-Maf co-expressed with C-terminal 3XFLAG-tagged Tec kinases in HEK 293T cells; whole cell extract after 24 hours; IP with anti-c-Maf, blot with anti-FLAG.

Take “Itk-3XFLAG (from UniProt Q03526 1-625) (enzyme)”: the binding result is “no binding”.

B1: Tec-3XFLAG (enzyme, UniProt P24604 1-630)
chain: MNFNTILEEILIKRSQQKKKTSLLNYKERLCVLPKSVLSYYEGRAEKKYRKGVIDISKIKCVEIVKNDDGVIPCQNKFPFQVVHDANTLYIFAPSPQSRDRWVKKLKEEIKNNNNIMIKYHPKFWADGSYQCCRQTEKLAPGCEKYNLFESSIRKTLPPAPEIKKRRPPPPIPPEEENTEEIVVAMYDFQATEAHDLRLERGQEYIILEKNDLHWWRARDKYGSEGYIPSNYVTGKKSNNLDQYEWYCRNTNRSKAEQLLRTEDKEGGFMVRDSSQPGLYTVSLYTKFGGEGSSGFRHYHIKETATSPKKYYLAEKHAFGSIPEIIEYHKHNAAGLVTRLRYPVSTKGKNAPTTAGFSYDKWEINPSELTFMRELGSGLFGVVRLGKWRAQYKVAIKAIREGAMCEEDFIEEAKVMMKLTHPKLVQLYGVCTQQKPIYIVTEFMERGCLLNFLRQRQGHFSRDMLLSMCQDVCEGMEYLERNSFIHRDLAARNCLVNEAGVVKVSDFGMARYVLDDQYTSSSGAKFPVKWCPPEVFNYSRFSSKSDVWSFGVLMWEIFTEGRMPFEKNTNYEVVTMVTRGHRLHRPKLATKYLYEVMLRCWQERPEGRPSLEDLLRTIDELVECEETFGR
Turning to B1, the binding entry is reported as “binds”.

B2: Rlk-3XFLAG (enzyme, UniProt P42682 1-527)
chain: MILSSYSSFQSVLCCCCCRCSVQKRQVRTQISLSREEELSEKHSQRQRPWFAKLMGKTQSNRGGVQPSKRKPLPPLPQEPPDERIQVKALYDFLPREPGNLALKRAEEYLILERCDPHWWKARDRFGNEGLIPSNYVTENRLANLEIYEWYHKNITRNQTERLLRQEAKEGAFIVRDSRHLGSYTISVFTRARRHTQSSIKHYQIKKNDSGQWYITERHLFPSVPELIQYHQYNAAGLISRLRYPIGLLGSCLPATSGFSYEKWEIDPSELAFVKEIGSGQFGVVHLGEWRAHIPVAIKAINEGSMSEEDFIEEAKVMMKLSHSRLVQLYGVCIQQKPLYIVTEFMENGCLLDYLRERKGQLQKALLLSMCQDICEGMAYLERSCYIHRDLAARNCLVSSACVVKISDFGMARYVLDDEYISSSGAKFPVKWCPPEVFHFNKYSSKSDVWSFGVLMWEVFTEGKMPFENKSNLQVVEAISQGFRLYRPHLAPMTIYRVMYSCWHESPKGRPTFAELLQVLTEIAETW
Regarding B2, the binding entry is listed as “no binding”.
